The source of these data is PubChem BioAssay AID190 (DTP/NCI, 2004).

The list does not hold the whole screen: it gathers some chemical classes. Not every dose and run of a compound is shown. T/C: endpoint of the treated group in % of that of the vehicle group. Some doses have a count of surviving animals in place of a T/C: the source holds a T/C of zero for them, seemingly a mark for toxic or unscored doses. Some survivor counts are full or nearly so, which does not show that the dose was tolerated: the source hardly ever lists a survival T/C far under the control, and the zero likely stands for such cases as well. Survivors were counted at the toxicity check, usually on the fifth day, unless a day is given; later deaths do not show. Schedule codes are those of the source, read here as Q, the interval in days (D) or hours (H), X, the number of doses. For survival time, the PubChem record calls one and a half times the control and up active, and a quarter to a half above the control has no call in these data; cut-offs in other NCI protocols can differ. Some T/C values carry the count of animals alive at the toxicity check (mostly the fifth day); without a count or a note in brackets, all were alive then. Some entries hold several experiments; the values are given in rising order.

The experiment concerns AKR/Lw mice, AKR lymphoma ip, median survival T/C. Nature of the experiment: NCI In Vivo Anticancer Drug Screen. Data for tumor model Lymphoma AKR (Transplanted) (intraperitoneal) in AKR/Lw mice. The conditions noted are these: T/C endpoint: median survival time, higher T/C = longer survival. On the procedure:
The antitumor activity of compounds was measured in mice bearing transplantable tumors. Survival or tumor size were measured and the results are expressed as the measurement made in the treated group (T) divided by the measurement made in the vehicle treated control group (C). The tumor model used in this assay is Lymphoma AKR (Transplanted) (intraperitoneal) in AKR/Lw mice

Regarding `CCOP(OCC)OCc1ccccc1`, the T/C (dose: 50.0 mg/kg/injection, schedule: Q01DX009 (ip), vehicle: saline) is 114 % of control; the T/C (dose: 75.0 mg/kg/injection, schedule: Q01DX009 (ip), vehicle: saline) is 116 % of control; the T/C (dose: 100.0 mg/kg/injection, schedule: Q01DX001 (ip), vehicle: saline, evaluated on day 45) is 98 % of control; the T/C (dose: 100.0 mg/kg/injection, schedule: Q01DX001 (ip), vehicle: saline, evaluated on day 60) is 95 and 100 % of control [9 of 10 alive]; the T/C (dose: 100.0 mg/kg/injection, schedule: Q01DX009 (ip), vehicle: saline) was 107 % of control; the T/C (dose: 100.0 mg/kg/injection, schedule: Q04DX003 (ip), vehicle: other) was 117 % of control. The T/C reads like this: (dose: 100.0 mg/kg/injection, schedule: Q04DX003 (ip), vehicle: saline) 102 and 111 % of control; (dose: 150.0 mg/kg/injection, schedule: Q01DX009 (ip), vehicle: saline) 116 % of control; (dose: 200.0 mg/kg/injection, schedule: Q01DX001 (ip), vehicle: saline, evaluated on day 45) 105 % of control [9 of 10 alive]; (dose: 200.0 mg/kg/injection, schedule: Q01DX001 (ip), vehicle: saline, evaluated on day 60) 96 [8 of 10 alive] and 102 % of control; (dose: 200.0 mg/kg/injection, schedule: Q01DX009 (ip), vehicle: saline) 100 % of control; (dose: 200.0 mg/kg/injection, schedule: Q04DX003 (ip), vehicle: other) 128 % of control. The T/C is, setting by setting: (dose: 200.0 mg/kg/injection, schedule: Q04DX003 (ip), vehicle: saline) 100 and 119 % of control; (dose: 300.0 mg/kg/injection, schedule: Q04DX003 (ip), vehicle: saline) 102 % of control; (dose: 400.0 mg/kg/injection, schedule: Q01DX001 (ip), vehicle: saline, evaluated on day 45) 128 % of control; (dose: 400.0 mg/kg/injection, schedule: Q01DX001 (ip), vehicle: saline, evaluated on day 60) 93 [9 of 10 alive] and 104 % of control; (dose: 400.0 mg/kg/injection, schedule: Q01DX009 (ip), vehicle: saline) 105 % of control; (dose: 400.0 mg/kg/injection, schedule: Q04DX003 (ip), vehicle: other) 110 % of control. Also, the T/C by setting is: (dose: 400.0 mg/kg/injection, schedule: Q04DX003 (ip), vehicle: saline) 109 % of control; (dose: 500.0 mg/kg/injection, schedule: Q01DX001 (ip), vehicle: saline) 115 % of control; (dose: 600.0 mg/kg/injection, schedule: Q01DX001 (ip), vehicle: saline) 107 % of control [9 of 10 alive]. Moreover, the survivor count (dose: 800.0 mg/kg/injection, schedule: Q01DX001 (ip), vehicle: saline) is 7 of 10.
